In article PMC7646593:
Results are given in words; binding and its absence hold for the method and conditions named. Binding can be weak; no strength is given.

Target: T1, Recombinant C. albicans Adh1 (C. albicans SC5314) (UniProt P43067)
T1 sequence: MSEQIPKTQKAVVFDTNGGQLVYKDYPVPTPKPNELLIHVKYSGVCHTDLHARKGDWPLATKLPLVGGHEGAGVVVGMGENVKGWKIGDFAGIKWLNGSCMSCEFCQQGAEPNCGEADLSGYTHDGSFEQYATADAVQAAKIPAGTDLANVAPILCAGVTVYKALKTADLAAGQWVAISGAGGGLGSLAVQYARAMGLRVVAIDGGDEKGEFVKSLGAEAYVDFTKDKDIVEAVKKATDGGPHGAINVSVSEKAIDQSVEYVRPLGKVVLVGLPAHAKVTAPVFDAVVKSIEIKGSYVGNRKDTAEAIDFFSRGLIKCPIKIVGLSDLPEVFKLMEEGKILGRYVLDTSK
Test: ELISA; recombinant C. albicans protein (0.5 μg) coated on 96-well plates, blocked with PBS with 5% BSA; human plasminogen (0.5 μg per well) added, 37°C, 1 h; detected with rabbit anti-plasminogen antibody and HRP anti-rabbit IgG; BSA-coated wells deducted; both purified

For Human plasminogen, the binding was “binds”.
